# Measured values published in the supplement of paper PMC12823440, “Inhibitors supercharge kinase turnover through native proteolytic circuits” (Nature, 2025).
# Protein sequences, listed by entry. Tags and fused reporters are not part of them. Lines headed by an entry give the natural chain unless they say otherwise; changes in a name come on top.
# UniProt P29597: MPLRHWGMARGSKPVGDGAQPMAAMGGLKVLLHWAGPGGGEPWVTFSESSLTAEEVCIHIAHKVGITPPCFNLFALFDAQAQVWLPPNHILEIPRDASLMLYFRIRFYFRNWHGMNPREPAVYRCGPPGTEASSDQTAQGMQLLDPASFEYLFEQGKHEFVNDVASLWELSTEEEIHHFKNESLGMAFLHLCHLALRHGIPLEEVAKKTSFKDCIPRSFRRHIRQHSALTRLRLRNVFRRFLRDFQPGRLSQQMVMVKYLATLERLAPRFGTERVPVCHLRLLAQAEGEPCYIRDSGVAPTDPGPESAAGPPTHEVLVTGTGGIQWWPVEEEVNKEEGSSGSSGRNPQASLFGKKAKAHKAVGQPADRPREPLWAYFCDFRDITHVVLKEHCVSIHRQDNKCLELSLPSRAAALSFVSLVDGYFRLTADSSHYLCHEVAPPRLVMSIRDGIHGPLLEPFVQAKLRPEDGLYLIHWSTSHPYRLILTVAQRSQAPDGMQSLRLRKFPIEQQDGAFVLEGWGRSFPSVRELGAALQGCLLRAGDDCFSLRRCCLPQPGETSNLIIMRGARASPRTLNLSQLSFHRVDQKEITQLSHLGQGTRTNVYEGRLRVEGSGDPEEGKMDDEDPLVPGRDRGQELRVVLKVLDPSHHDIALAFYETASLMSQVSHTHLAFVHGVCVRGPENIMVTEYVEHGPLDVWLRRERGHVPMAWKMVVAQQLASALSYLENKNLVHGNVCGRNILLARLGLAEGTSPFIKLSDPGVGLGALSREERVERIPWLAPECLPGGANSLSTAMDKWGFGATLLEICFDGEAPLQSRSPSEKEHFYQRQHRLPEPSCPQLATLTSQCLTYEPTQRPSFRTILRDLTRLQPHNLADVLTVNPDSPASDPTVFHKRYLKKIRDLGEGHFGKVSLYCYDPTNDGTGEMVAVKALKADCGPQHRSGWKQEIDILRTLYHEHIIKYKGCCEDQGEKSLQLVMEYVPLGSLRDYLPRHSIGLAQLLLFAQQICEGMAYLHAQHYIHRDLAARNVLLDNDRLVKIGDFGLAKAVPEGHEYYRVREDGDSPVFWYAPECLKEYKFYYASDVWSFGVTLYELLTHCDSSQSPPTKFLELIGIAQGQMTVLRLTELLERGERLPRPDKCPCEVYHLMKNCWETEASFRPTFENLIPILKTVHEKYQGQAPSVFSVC
# UniProt Q6PHR2: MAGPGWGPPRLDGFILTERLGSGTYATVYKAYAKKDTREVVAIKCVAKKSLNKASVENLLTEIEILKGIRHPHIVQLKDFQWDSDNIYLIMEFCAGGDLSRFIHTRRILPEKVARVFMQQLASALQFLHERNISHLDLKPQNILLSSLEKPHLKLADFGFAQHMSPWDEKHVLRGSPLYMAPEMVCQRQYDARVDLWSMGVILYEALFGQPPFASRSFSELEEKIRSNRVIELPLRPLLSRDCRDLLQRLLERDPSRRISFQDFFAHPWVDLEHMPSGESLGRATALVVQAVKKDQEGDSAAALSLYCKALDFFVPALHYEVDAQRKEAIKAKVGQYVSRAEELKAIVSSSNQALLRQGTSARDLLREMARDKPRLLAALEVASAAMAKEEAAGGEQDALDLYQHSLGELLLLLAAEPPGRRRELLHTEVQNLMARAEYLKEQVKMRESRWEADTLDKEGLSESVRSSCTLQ
# UniProt P07947, whole entry, looked up: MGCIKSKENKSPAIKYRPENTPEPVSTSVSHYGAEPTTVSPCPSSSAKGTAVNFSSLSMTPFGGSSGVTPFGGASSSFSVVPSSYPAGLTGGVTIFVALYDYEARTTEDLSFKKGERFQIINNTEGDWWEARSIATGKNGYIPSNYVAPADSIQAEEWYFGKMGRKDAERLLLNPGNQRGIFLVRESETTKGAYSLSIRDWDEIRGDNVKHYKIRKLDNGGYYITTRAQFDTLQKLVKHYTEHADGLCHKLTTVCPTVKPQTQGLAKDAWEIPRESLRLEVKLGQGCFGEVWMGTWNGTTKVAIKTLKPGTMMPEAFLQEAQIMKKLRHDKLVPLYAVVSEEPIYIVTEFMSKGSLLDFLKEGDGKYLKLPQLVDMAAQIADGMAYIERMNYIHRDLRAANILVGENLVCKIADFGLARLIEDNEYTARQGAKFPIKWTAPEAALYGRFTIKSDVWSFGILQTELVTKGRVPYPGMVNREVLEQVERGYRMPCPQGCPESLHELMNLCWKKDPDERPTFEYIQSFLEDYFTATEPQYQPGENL
# UniProt P43403: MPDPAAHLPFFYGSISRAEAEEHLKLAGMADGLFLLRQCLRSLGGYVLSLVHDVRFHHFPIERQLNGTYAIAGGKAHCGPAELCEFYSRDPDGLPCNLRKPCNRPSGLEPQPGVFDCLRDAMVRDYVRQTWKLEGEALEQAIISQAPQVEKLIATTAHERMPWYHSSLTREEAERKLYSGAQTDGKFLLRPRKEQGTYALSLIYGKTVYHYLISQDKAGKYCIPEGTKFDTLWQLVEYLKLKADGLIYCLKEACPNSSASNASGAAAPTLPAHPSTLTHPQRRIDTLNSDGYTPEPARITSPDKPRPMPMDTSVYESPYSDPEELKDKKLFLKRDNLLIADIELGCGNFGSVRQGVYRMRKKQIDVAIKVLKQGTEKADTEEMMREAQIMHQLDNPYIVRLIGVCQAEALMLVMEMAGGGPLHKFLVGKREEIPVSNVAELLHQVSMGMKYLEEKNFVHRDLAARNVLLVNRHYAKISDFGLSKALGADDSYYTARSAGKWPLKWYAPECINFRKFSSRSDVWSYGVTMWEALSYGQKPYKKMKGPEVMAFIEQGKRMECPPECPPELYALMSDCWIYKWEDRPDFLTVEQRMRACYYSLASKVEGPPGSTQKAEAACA
# UniProt P00519, whole entry: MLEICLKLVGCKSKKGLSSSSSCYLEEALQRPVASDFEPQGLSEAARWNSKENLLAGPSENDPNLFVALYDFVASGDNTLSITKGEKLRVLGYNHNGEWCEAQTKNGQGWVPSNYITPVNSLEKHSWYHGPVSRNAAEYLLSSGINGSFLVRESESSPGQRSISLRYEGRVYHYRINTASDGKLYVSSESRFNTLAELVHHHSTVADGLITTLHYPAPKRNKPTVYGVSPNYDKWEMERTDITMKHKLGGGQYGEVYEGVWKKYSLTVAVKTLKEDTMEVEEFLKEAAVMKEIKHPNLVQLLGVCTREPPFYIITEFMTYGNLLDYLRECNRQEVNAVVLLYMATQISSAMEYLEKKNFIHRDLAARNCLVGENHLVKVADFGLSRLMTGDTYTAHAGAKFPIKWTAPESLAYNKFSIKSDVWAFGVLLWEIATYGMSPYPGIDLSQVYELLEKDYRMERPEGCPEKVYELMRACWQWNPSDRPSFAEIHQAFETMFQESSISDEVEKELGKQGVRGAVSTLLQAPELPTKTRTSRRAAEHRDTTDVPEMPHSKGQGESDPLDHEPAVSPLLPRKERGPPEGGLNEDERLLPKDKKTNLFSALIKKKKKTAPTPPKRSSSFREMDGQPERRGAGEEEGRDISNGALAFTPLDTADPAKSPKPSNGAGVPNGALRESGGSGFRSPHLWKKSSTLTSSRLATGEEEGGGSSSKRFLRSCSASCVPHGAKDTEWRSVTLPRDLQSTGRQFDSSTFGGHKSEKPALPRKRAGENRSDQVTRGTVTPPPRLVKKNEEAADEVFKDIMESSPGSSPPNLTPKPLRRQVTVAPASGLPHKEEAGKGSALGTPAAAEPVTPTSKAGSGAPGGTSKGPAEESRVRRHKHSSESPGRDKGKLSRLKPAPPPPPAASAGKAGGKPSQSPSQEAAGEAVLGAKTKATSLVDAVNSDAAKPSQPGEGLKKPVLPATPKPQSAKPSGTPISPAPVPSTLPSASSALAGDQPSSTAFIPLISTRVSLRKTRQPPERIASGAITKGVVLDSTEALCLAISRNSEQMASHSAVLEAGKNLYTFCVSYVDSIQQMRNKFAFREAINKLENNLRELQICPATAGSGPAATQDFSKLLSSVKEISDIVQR
# UniProt P31749: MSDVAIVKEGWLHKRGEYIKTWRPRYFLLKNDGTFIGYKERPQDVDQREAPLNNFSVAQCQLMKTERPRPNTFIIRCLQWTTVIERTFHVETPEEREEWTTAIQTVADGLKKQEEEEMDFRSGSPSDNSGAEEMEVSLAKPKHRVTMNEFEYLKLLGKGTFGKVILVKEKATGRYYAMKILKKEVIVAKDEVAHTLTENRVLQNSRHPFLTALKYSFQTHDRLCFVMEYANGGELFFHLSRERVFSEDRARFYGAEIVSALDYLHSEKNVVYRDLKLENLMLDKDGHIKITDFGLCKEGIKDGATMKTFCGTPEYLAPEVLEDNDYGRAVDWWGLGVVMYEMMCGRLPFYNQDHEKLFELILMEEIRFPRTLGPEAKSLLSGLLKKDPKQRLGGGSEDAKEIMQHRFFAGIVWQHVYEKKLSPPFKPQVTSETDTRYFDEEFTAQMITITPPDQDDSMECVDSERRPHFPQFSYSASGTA
# UniProt P10398: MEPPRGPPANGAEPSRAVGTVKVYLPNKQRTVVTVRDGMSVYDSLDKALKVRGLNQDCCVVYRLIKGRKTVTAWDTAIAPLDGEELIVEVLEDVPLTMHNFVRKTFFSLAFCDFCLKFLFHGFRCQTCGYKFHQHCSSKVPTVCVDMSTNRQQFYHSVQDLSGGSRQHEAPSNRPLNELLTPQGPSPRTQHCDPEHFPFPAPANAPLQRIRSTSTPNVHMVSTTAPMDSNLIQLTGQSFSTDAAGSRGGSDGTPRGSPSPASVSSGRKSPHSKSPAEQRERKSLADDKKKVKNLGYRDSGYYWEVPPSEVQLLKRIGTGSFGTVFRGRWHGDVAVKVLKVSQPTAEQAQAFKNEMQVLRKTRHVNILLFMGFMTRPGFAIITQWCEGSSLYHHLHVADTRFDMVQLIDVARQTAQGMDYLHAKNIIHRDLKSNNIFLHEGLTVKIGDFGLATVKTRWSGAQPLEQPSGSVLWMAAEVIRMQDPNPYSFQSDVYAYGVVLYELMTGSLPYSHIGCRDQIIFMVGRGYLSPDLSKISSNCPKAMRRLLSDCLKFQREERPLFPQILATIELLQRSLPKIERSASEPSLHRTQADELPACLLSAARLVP
# UniProt Q96GD4, whole entry: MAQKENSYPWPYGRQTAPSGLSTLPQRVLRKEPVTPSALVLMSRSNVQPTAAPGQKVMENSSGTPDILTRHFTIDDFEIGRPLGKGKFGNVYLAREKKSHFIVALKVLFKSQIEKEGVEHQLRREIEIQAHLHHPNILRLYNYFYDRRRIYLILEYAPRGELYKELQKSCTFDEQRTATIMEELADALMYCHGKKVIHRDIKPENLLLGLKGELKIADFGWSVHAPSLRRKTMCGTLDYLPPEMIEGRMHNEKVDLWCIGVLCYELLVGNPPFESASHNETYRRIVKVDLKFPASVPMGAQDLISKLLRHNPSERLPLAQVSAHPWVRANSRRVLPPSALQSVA
# UniProt P51451: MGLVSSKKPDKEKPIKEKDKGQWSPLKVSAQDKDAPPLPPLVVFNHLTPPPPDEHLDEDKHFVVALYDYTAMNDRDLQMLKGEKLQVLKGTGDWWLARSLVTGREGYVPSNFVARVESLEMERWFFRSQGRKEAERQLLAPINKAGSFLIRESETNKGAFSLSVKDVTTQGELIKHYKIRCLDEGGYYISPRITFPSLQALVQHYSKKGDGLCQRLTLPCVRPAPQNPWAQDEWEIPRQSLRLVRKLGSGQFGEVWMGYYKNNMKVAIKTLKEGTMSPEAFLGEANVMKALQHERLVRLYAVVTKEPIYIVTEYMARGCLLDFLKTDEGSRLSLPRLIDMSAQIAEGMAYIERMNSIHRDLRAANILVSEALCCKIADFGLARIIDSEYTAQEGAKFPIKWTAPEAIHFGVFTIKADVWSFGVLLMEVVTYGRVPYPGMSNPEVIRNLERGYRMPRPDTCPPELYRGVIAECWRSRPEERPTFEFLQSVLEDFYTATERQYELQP
# UniProt P51813: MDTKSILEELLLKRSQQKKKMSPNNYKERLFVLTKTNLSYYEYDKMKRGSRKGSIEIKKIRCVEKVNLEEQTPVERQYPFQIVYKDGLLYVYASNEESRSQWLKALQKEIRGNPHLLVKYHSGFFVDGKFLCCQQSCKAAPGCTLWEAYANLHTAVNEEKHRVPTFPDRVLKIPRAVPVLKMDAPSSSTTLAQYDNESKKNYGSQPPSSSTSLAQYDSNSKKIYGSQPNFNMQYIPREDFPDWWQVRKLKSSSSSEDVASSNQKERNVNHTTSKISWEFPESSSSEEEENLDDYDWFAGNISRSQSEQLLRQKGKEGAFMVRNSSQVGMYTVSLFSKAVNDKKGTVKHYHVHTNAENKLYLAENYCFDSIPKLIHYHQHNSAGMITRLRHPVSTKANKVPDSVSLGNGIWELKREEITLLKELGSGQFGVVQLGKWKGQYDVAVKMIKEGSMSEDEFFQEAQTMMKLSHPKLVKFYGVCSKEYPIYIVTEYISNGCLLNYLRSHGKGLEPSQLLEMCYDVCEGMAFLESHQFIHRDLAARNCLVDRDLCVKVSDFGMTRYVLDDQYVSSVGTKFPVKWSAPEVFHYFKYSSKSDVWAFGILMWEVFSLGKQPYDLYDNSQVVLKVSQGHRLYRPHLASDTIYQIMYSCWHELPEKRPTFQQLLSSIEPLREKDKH
# Some of the results follow. The calls rarely recur for the same compound in another form.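 In K562 cells expressing nanoluciferase-fused kinases, luminescence was recorded at 4 h intervals between 2 and 18 h, normalized as percent of control with DMSO at 100% and a positive control at 0%. A significant (2 sigma) signal drop marks a time point as decreased. The authors' rule for a hit is not shown and takes in more than the number of time points.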
# Columns and labels:
# Settings in all cases: K562; 2-18 h
# STK38 = STK38 (UniProt Q15208); test: kinase-Nluc reporter destabilization hit call (1 = scored as downregulated) (binary); higher = compound decreases kinase abundance
# SYK = SYK (UniProt P43405); test: as above
# TEC = TEC (UniProt P42680); test: as above
# TYK2 = TYK2 (UniProt P29597); test: as above
# ULK3 = ULK3 (UniProt Q6PHR2); test: as above
# YES1 = YES1 (UniProt P07947); test: as above
# ZAK = ZAK (UniProt Q9NYL2); test: as above
# ZAP70 = ZAP70 (UniProt P43403); test: as above
# ABL1 = ABL1 (UniProt P00519); test: number of time points (of 5) at which kinase-Nluc abundance scored as decreased, DMSO-normalised (count); higher = more persistent destabilization
# AKT1 = AKT1 (UniProt P31749); test: as above
# ALK = ALK (UniProt Q9UM73); test: as above
# ARAF = ARAF (UniProt P10398); test: as above
# AURKA = AURKA (UniProt O14965); test: as above
# AURKB = AURKB (UniProt Q96GD4); test: as above
# AURKC = AURKC (UniProt Q9UQB9); test: as above
# BLK = BLK (UniProt P51451); test: as above
# BMX = BMX (UniProt P51813); test: as above
# BRAF = BRAF (UniProt P15056); test: as above
# BRAF_V600E = test: as above
# BTK = BTK (UniProt Q06187); test: as above
SMILES,kinase-Nluc reporter destabilization hit call (STK38),kinase-Nluc reporter destabilization hit call (SYK),kinase-Nluc reporter destabilization hit call (TEC),kinase-Nluc reporter destabilization hit call (TYK2),kinase-Nluc reporter destabilization hit call (ULK3),kinase-Nluc reporter destabilization hit call (YES1),kinase-Nluc reporter destabilization hit call (ZAK),kinase-Nluc reporter destabilization hit call (ZAP70),number of time points (ABL1),number of time points (AKT1),number of time points (ALK),number of time points (ARAF),number of time points (AURKA),number of time points (AURKB),number of time points (AURKC),number of time points (BLK),number of time points (BMX),number of time points (BRAF),number of time points (BRAF_V600E),number of time points (BTK)
COc1cc(N2CCN(C)CC2)ccc1Nc1ncc2c(n1)N(C1CCC1)C(=O)N(c1c(C)cccc1C)C2 (2.5 µM),inactive: 0,inactive: 0,inactive: 0,inactive: 0,inactive: 0,inactive: 0,inactive: 0,inactive: 0,0,0,0,0,0,0,0,0,0,0,0,0
Nc1nccc(Oc2ccc(NC(=O)c3cn(COP(=O)(O)O)cc(-c4ccc(F)cc4)c3=O)cc2F)c1Cl (10 µM),inactive: 0,inactive: 0,inactive: 0,inactive: 0,inactive: 0,inactive: 0,inactive: 0,inactive: 0,0,0,0,0,0,0,0,2,1,0,1,0
COc1ccc(C(=O)Nc2sc3c(c2C(N)=O)CCCC3)cc1OC (10 µM),inactive: 0,inactive: 0,inactive: 0,inactive: 0,inactive: 0,inactive: 0,inactive: 0,inactive: 0,0,0,0,0,0,0,0,0,0,0,0,0
O=C(NC(NC(=S)Nc1ccc(F)c([N+](=O)[O-])c1)C(Cl)(Cl)Cl)C(c1ccccc1)c1ccccc1 (stereo not given) (10 µM),inactive: 0,inactive: 0,inactive: 0,inactive: 0,inactive: 0,inactive: 0,inactive: 0,inactive: 0,0,0,0,0,0,0,0,0,0,0,0,0
Cc1ccc(NC(=S)NNc2c([N+](=O)[O-])cc(C(F)(F)F)cc2[N+](=O)[O-])cc1Cl (10 µM),inactive: 0,inactive: 0,inactive: 0,inactive: 0,inactive: 0,inactive: 0,inactive: 0,inactive: 0,0,0,0,0,0,0,0,0,0,0,0,0
Cn1nccc1Nc1nccc(-c2cc3c(s2)C(C)(C)N(CCN2CCOCC2)C3=O)n1 (10 µM),inactive: 0,inactive: 0,inactive: 0,inactive: 0,inactive: 0,inactive: 0,inactive: 0,inactive: 0,0,0,0,0,0,0,0,0,0,0,0,0
O=C(CNC(=O)c1ccc(-c2ccccc2)cc1)NC1CCCc2ccccc21 (stereo not given) [TAO Kinase inhibitor 1] (10 µM),inactive: 0,inactive: 0,inactive: 0,inactive: 0,inactive: 0,inactive: 0,inactive: 0,inactive: 0,0,0,0,0,0,0,0,0,0,0,0,0
Cc1cc(NC(=O)c2cccc(NC(=O)/C=C/CN(C)C)c2)ccc1Nc1nccc(-c2cccnc2)n1 (10 µM),inactive: 0,inactive: 0,inactive: 0,inactive: 0,inactive: 0,inactive: 0,inactive: 0,inactive: 0,3,0,1,0,0,0,0,0,1,0,0,0
Nc1ncnc2c1c(-c1ccc(Oc3ccccc3)cc1)nn2C1CCCNC1 (racemic) (2.5 µM),inactive: 0,inactive: 0,inactive: 0,inactive: 0,inactive: 0,inactive: 0,inactive: 0,inactive: 0,0,0,0,0,0,0,0,0,0,0,0,0
C=CC(=O)Nc1cccc(C)c1Nc1ncc2cc(-c3c(Cl)c(OC)cc(OC)c3Cl)ccc2n1 (2.5 µM),inactive: 0,inactive: 0,inactive: 0,inactive: 0,inactive: 0,inactive: 0,inactive: 0,inactive: 0,2,0,0,0,0,0,0,0,0,0,2,0

# Taken from above:
# number of time points (AURKA), Cn1nccc1Nc1nccc(-c2cc3c(s2)C(C)(C)N(CCN2CCOCC2)C3=O)n1 (10 µM) is entered as 0
# number of time points (BRAF_V600E), COc1ccc(C(=O)Nc2sc3c(c2C(N)=O)CCCC3)cc1OC (10 µM) is entered as 0
